Laboratory results from patent US6379882B1, “Method for selecting compounds for treating ischemia-related cellular damage” (Elan Pharmaceuticals, Inc., priority 1998, dated 2002).
For at least one compound, name, drawing or mass did not settle the structure. Some of these results come from one statement about several compounds together.

System: retinal ganglion cells
Format: cell-based, rat

| Structure (SMILES) | survival of RGCs after OGD [%] | protection of oxygen/glucose-deprived RGCs from apoptotic cell death (in words) |
| --- | --- | --- |
| NC(CCCP(=O)(O)O)C(=O)O (racemic) [AP-5, DL-2-amino-5-phosphonovaleric acid] | ≥ 30 | – |
| NC(CCCCCP(=O)(O)O)C(=O)O (racemic) [AP-7] | ≥ 30 | – |
| CCOC(=O)C1=C(C)NC(C)=C(C(=O)OC)C1c1cccc([N+](=O)[O-])c1 (stereo not shown) [Nitrendipine] | – | showed protection from OGD-induced apoptosis, but to a lesser extent than SNX-194 |
| O=C(O)c1ccccc1Nc1cccc(C(F)(F)F)c1 [flufenamic acid] | ≥ 30 | – |
